# Experimental data as given in publication PMC6331934, “Study of the Biotransformation of Tongmai Formula by Human Intestinal Flora and Its Intestinal Permeability across the Caco-2 Cell Monolayer” (Molecules, 2015).
# Test: Bidirectional transport across the Caco-2 cell monolayer (Papp, efflux ratio, mass balance)
# Conditions: human, Caco-2, pH 7.4
smiles,measurement,value
"CC(C)NCC(O)COc1ccc(CC(N)=O)cc1 (stereo not shown) [atenolol, reference compound]",Papp A→B at 1 h,0.617 ×10⁻⁶ cm/s
